Results are given in words; binding and its absence hold for the method and conditions named. Binding seen in cells or lysates may run through a third protein. These calls come from enrichment with a bait or labelling near it, and not all partners need be listed. No binding means not detected with the bait.
B1: IKKβ (protein, UniProt O14920 1-756)
chain: MSWSPSLTTQTCGAWEMKERLGTGGFGNVIRWHNQETGEQIAIKQCRQELSPRNRERWCLEIQIMRRLTHPNVVAARDVPEGMQNLAPNDLPLLAMEYCQGGDLRKYLNQFENCCGLREGAILTLLSDIASALRYLHENRIIHRDLKPENIVLQQGEQRLIHKIIDLGYAKELDQGSLCTSFVGTLQYLAPELLEQQKYTVTVDYWSFGTLAFECITGFRPFLPNWQPVQWHSKVRQKSEVDIVVSEDLNGTVKFSSSLPYPNNLNSVLAERLEKWLQLMLMWHPRQRGTDPTYGPNGCFKALDDILNLKLVHILNMVTGTIHTYPVTEDESLQSLKARIQQDTGIPEEDQELLQEAGLALIPDKPATQCISDGKLNEGHTLDMDLVFLFDNSKITYETQISPRPQPESVSCILQEPKRNLAFFQLRKVWGQVWHSIQTLKEDCNRLQQGQRAAMMNLLRNNSCLSKMKNSMASMSQQLKAKLDFFKTSIQIDLEKYSEQTEFGITSDKLLLAWREMEQAVELCGRENEVKLLVERMMALQTDIVDLQRSPMGRKQGGTLDDLEEQARELYRRLREKPRDQRTEGDSQEMVRLLLQAIQSFEKKVRVIYTQLSKTVVCKQKALELLPKVEEVVSLMNEDEKTVVRLQEKRQKELWNLLKIACSKVRGPVSGSPDSMNASRLSQPGQLMSQPSTASNSLPEPAKKSEELVAEAHNLCTLLENAIQDTVREQDQSFTALDWSWLQTEEEEHSCLEQAS
B2: TRAF1 (protein, UniProt Q13077 1-416)
chain: MASSSGSSPRPAPDENEFPFGCPPTVCQDPKEPRALCCAGCLSENPRNGEDQICPKCRGEDLQSISPGSRLRTQEKAHPEVAEAGIGCPFAGVGCSFKGSPQSVQEHEVTSQTSHLNLLLGFMKQWKARLGCGLESGPMALEQNLSDLQLQAAVEVAGDLEVDCYRAPCSESQEELALQHFMKEKLLAELEGKLRVFENIVAVLNKEVEASHLALATSIHQSQLDRERILSLEQRVVELQQTLAQKDQALGKLEQSLRLMEEASFDGTFLWKITNVTRRCHESACGRTVSLFSPAFYTAKYGYKLCLRLYLNGDGTGKRTHLSLFIVIMRGEYDALLPWPFRNKVTFMLLDQNNREHAIDAFRPDLSSASFQRPQSETNVASGCPLFFPLSKLQSPKHAYVKDDTMFLKCIVETST
B3: TAB3 (protein, UniProt Q8N5C8 1-712)
chain: MAQSSPQLDIQVLHDLRQRFPEIPEGVVSQCMLQNNNNLEACCRALSQESSKYLYMEYHSPDDNRMNRNRLLHINLGIHSPSSYHPGDGAQLNGGRTLVHSSSDGHIDPQHAAGKQLICLVQEPHSAPAVVAATPNYNPFFMNEQNRSAATPPSQPPQQPSSMQTGMNPSAMQGPSPPPPPPSYMHIPRYSTNPITVTVSQNLPSGQTVPRALQILPQIPSNLYGSPGSIYIRQTSQSSSGRQTPQSTPWQSSPQGPVPHYSQRPLPVYPHQQNYQPSQYSPKQQQIPQSAYHSPPPSQCPSPFSSPQHQVQPSQLGHIFMPPSPSTTPPHPYQQGPPSYQKQGSHSVAYLPYTASSLSKGSMKKIEITVEPSQRPGTAINRSPSPISNQPSPRNQHSLYTATTPPSSSPSRGISSQPKPPFSVNPVYITYTQPTGPSCTPSPSPRVIPNPTTVFKITVGRATTENLLNLVDQEERSAAPEPIQPISVIPGSGGEKGSHKYQRSSSSGSDDYAYTQALLLHQRARMERLAKQLKLEKEELERLKSEVNGMEHDLMQRRLRRVSCTTAIPTPEEMTRLRSMNRQLQINVDCTLKEVDLLQSRGNFDPKAMNNFYDNIEPGPVVPPKPSKKDSSDPCTIERKARRISVTSKVQADIHDTQAAAADEHRTGSTQSPRTQPRDEDYEGAPWNCDSCTFLNHPALNRCEQCEMPRYT
B4: transforming growth factor β–activated kinase (TAK) (protein, UniProt O43318 1-606)
chain: MSTASAASSSSSSSAGEMIEAPSQVLNFEEIDYKEIEVEEVVGRGAFGVVCKAKWRAKDVAIKQIESESERKAFIVELRQLSRVNHPNIVKLYGACLNPVCLVMEYAEGGSLYNVLHGAEPLPYYTAAHAMSWCLQCSQGVAYLHSMQPKALIHRDLKPPNLLLVAGGTVLKICDFGTACDIQTHMTNNKGSAAWMAPEVFEGSNYSEKCDVFSWGIILWEVITRRKPFDEIGGPAFRIMWAVHNGTRPPLIKNLPKPIESLMTRCWSKDPSQRPSMEEIVKIMTHLMRYFPGADEPLQYPCQYSDEGQSNSATSTGSFMDIASTNTSNKSDTNMEQVPATNDTIKRLESKLLKNQAKQQSESGRLSLGASRGSSVESLPPTSEGKRMSADMSEIEARIAATTAYSKPKRGHRKTASFGNILDVPEIVISGNGQPRRRSIQDLTVTGTEPGQVSSRSSSPSVRMITTSGPTSEKPTRSHPWTPDDSTDTNGSDNSIPMAYLTLDHQLQPLAPCPNSKESMAVFEQHCKMAQEYMKVQTEIALLLQRKQELVAELDQDEKDQQNTSRLVQEHKKLLDENKSLSTYYQQCKKQLEVIRSQQQKRQGTS
B5: TAB1 (protein, UniProt Q15750 1-504)
chain: MAAQRRSLLQSEQQPSWTDDLPLCHLSGVGSASNRSYSADGKGTESHPPEDSWLKFRSENNCFLYGVFNGYDGNRVTNFVAQRLSAELLLGQLNAEHAEADVRRVLLQAFDVVERSFLESIDDALAEKASLQSQLPEGVPQHQLPPQYQKILERLKTLEREISGGAMAVVAVLLNNKLYVANVGTNRALLCKSTVDGLQVTQLNVDHTTENEDELFRLSQLGLDAGKIKQVGIICGQESTRRIGDYKVKYGYTDIDLLSAAKSKPIIAEPEIHGAQPLDGVTGFLVLMSEGLYKALEAAHGPGQANQEIAAMIDTEFAKQTSLDAVAQAVVDRVKRIHSDTFASGGERARFCPRHEDMTLLVRNFGYPLGEMSQPTPSPAPAAGGRVYPVSVPYSSAQSTSKTSVTLSLVMPSQGQMVNGAHSASTLDEATPTLTNQSPTLTLQSTNTHTQSSSSSSDGGLFRSRPAHSLPPGEDGRVEPYVDFAEFYRLWSVDHGEQSVVTAP
B6: TAB2 (protein, UniProt Q9NYJ8 1-693)
chain: MAQGSHQIDFQVLHDLRQKFPEVPEVVVSRCMLQNNNNLDACCAVLSQESTRYLYGEGDLNFSDDSGISGLRNHMTSLNLDLQSQNIYHHGREGSRMNGSRTLTHSISDGQLQGGQSNSELFQQEPQTAPAQVPQGFNVFGMSSSSGASNSAPHLGFHLGSKGTSSLSQQTPRFNPIMVTLAPNIQTGRNTPTSLHIHGVPPPVLNSPQGNSIYIRPYITTPGGTTRQTQQHSGWVSQFNPMNPQQVYQPSQPGPWTTCPASNPLSHTSSQQPNQQGHQTSHVYMPISSPTTSQPPTIHSSGSSQSSAHSQYNIQNISTGPRKNQIEIKLEPPQRNNSSKLRSSGPRTSSTSSSVNSQTLNRNQPTVYIAASPPNTDELMSRSQPKVYISANAATGDEQVMRNQPTLFISTNSGASAASRNMSGQVSMGPAFIHHHPPKSRAIGNNSATSPRVVVTQPNTKYTFKITVSPNKPPAVSPGVVSPTFELTNLLNHPDHYVETENIQHLTDPTLAHVDRISETRKLSMGSDDAAYTQALLVHQKARMERLQRELEIQKKKLDKLKSEVNEMENNLTRRRLKRSNSISQIPSLEEMQQLRSCNRQLQIDIDCLTKEIDLFQARGPHFNPSAIHNFYDNIGFVGPVPPKPKDQRSIIKTPKTQDTEDDEGAQWNCTACTFLNHPALIRCEQCEMPRHF

Protein sequences, listed by entry. Tags and fused reporters are not part of them. Residues count along the entry.
UniProt Q07011, residues 24-255: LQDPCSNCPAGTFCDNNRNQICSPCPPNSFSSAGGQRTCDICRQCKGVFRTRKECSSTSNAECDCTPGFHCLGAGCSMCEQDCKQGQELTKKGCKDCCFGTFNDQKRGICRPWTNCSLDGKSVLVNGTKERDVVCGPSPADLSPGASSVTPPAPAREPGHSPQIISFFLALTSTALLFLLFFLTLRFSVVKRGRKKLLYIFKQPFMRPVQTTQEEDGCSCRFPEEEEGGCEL

Key:
[1] = biological target: CD137 (4-1BB, TNFRSF9) (human (endogenous in primary CD8 T cells)) (UniProt Q07011); experiment: affinity purification with mass spectrometry; preactivated primary human CD8 T cells, MG132, resting or 15 min at 37°C on plates coated with CD137L, anti-CD3 or both (part left on ice); 1% Brij96 lysates; IP with anti-CD137 6B4 on magnetic microbeads against control IgG; tryptic digest, LC-MS/MS
[2] = biological target: CD137 (4-1BB), stably transfected in Jurkat cells (UniProt Q07011); experiment: affinity purification with mass spectrometry; CD137 stably transfected Jurkat cells, MG132, stimulated on CD137L-Fc-coated plates 15 min; 1% Brij96 lysates; IP with anti-CD137 6B4 on magnetic microbeads against control IgG; LC-MS/MS

Binder	binding [1]	binding [2]
B1	binds	
B2	binds	
B3	no binding	no binding
B4	no binding	no binding
B5	no binding	no binding
B6	no binding	no binding
